These results are taken from publication PMC7778610.

Protein sequences, listed by entry. Tags and fused reporters are not part of them.
UniProt Q9Y5Q3: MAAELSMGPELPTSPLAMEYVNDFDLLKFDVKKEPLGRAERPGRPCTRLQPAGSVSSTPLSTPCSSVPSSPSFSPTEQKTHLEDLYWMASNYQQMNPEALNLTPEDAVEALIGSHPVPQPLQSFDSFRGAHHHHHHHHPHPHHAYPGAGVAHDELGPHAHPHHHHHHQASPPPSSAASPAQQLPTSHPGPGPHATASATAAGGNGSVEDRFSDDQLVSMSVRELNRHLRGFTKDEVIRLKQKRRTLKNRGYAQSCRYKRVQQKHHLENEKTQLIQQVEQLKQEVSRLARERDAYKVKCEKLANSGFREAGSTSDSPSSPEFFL
UniProt Q9Y6Q9: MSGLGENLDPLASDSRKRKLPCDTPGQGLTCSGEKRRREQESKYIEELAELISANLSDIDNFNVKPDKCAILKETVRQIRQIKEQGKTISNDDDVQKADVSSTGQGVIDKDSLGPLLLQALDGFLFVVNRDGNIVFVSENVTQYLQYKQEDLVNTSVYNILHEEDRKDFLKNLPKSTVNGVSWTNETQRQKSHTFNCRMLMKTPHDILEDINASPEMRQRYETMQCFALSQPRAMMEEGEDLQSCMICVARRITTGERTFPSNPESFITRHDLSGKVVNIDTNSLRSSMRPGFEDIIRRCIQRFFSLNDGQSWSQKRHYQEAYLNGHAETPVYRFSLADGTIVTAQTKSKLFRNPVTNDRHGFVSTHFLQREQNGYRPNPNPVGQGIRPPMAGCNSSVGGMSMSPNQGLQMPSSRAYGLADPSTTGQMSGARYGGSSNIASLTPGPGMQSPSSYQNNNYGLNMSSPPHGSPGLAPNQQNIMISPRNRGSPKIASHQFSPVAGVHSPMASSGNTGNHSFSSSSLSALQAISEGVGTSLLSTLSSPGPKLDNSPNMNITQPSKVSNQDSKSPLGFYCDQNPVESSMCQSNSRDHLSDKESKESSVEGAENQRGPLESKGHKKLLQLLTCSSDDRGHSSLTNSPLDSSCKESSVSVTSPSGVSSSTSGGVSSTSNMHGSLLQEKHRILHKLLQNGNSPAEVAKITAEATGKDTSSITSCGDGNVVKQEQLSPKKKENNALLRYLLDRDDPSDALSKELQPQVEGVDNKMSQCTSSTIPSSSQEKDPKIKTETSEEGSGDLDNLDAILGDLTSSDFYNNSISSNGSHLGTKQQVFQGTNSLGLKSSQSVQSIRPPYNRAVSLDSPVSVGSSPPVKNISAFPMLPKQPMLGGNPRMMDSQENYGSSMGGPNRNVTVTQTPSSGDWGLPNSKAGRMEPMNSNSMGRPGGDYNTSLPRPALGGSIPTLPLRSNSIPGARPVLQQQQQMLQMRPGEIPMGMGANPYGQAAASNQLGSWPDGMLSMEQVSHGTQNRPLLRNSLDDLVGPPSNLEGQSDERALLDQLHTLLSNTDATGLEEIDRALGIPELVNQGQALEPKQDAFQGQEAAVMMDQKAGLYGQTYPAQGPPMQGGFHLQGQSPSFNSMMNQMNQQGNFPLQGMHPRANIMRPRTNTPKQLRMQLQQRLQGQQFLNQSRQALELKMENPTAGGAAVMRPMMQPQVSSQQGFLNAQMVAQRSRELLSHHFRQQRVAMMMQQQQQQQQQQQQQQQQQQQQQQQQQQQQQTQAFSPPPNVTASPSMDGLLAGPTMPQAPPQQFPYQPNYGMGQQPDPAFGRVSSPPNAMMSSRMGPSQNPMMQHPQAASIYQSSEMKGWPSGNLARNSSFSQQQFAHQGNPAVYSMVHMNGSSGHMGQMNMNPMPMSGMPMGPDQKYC

No constants are given. Whether binding was seen depends on the method and setting. Binding seen in cells or lysates may run through a third protein. Some results given as binding are weak or reduced against the parent protein; the word gives no strength.

Assay [1] concerns the target GST-MafB (UniProt Q9Y5Q3). The experiment in a line: pull-down; GST-MafB or GST on glutathione Sepharose 4B beads, lysates of cells overexpressing Flag-AIB1 or the Flag-AD2 domain added; beads washed, western blotting; only the target purified.
Assay [2] has as its target MafB (UniProt Q9Y5Q3). The experiment in a line: co-IP; Flag-AIB1 and MafB plasmids cotransfected into 293T cells, lysed 24 h after transfection; lysates immunoprecipitated with the corresponding antibodies or control IgG; western blotting. Background: In western blotting, separated proteins are transferred to a membrane and probed.
Assay [3] has as its target Flag-tagged AIB1 (amplified in breast cancer 1) (UniProt Q9Y6Q9). Described as above.

Consider “Flag-tagged AIB1 (amplified in breast cancer 1) (from UniProt Q9Y6Q9 1-1424)”, for which the binding entry in assay [1] and in assay [2] was “binds” each time.

In the case of MafB (from UniProt Q9Y5Q3 1-323), in assay [3], the binding result is reported as “binds”.
